Data published in the supplement of paper PMC10849652.
Some of the results follow.

Sequences of proteins named here, by UniProt entry; tags and fusion partners are left off. A change or cut given only in a name is not applied to a line headed by its entry.
UniProt Q9NVA1: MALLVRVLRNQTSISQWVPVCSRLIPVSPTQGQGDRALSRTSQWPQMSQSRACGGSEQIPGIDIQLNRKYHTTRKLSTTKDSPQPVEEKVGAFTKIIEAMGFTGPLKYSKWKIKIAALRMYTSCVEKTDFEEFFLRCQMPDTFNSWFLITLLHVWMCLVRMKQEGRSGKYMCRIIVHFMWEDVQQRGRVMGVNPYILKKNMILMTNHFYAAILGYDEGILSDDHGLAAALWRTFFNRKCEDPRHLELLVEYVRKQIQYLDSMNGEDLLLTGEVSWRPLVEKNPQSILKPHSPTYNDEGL
UniProt Q9HA47: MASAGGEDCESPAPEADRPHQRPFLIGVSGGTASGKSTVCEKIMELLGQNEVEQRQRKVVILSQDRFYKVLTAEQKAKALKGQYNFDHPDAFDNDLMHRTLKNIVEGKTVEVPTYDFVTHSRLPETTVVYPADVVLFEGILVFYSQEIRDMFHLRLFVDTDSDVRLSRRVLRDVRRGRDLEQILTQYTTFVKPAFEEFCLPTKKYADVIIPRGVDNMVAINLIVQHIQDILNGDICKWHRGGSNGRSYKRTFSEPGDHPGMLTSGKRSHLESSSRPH
UniProt P15374: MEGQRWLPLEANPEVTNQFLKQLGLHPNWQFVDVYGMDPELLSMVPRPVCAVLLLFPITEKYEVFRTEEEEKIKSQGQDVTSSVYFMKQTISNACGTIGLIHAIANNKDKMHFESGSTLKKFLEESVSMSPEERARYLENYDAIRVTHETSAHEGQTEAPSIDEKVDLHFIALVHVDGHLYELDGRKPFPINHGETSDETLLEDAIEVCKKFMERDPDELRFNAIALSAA
UniProt Q08AM6: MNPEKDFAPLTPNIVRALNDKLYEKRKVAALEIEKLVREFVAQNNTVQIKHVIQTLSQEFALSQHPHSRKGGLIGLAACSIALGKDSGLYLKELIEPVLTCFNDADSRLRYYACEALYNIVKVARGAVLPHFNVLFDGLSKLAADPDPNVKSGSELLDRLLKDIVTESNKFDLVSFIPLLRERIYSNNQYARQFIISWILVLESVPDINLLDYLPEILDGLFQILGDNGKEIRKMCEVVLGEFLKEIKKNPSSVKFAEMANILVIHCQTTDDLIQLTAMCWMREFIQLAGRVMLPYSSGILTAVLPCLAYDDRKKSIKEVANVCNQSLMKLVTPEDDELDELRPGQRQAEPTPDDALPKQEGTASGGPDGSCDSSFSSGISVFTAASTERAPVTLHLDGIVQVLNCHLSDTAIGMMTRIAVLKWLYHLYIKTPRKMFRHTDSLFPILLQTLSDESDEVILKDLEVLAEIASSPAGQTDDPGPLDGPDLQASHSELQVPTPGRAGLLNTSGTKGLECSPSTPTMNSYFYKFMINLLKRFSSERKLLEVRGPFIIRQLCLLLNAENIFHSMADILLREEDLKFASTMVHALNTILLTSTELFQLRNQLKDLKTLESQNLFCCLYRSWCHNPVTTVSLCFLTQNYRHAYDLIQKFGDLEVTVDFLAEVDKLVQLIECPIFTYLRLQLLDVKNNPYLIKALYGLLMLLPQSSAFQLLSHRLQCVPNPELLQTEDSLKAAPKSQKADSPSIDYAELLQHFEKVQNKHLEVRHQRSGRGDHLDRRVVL
UniProt Q9BV40: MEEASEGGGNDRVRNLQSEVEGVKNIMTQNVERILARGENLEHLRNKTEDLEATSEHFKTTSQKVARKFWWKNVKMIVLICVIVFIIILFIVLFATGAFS
UniProt P50552: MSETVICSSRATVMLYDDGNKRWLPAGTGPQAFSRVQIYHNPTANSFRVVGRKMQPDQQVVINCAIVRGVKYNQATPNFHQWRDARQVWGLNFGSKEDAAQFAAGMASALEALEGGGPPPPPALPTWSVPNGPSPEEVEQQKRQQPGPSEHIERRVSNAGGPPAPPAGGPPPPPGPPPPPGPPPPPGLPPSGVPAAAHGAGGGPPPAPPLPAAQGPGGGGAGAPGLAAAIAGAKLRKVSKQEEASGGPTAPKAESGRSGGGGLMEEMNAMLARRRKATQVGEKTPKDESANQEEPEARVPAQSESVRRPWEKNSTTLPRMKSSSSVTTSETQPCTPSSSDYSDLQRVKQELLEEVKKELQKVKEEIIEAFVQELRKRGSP
UniProt Q9BZL1: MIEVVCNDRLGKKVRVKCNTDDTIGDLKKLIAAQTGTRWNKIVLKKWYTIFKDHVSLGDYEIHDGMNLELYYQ
UniProt Q96RL1: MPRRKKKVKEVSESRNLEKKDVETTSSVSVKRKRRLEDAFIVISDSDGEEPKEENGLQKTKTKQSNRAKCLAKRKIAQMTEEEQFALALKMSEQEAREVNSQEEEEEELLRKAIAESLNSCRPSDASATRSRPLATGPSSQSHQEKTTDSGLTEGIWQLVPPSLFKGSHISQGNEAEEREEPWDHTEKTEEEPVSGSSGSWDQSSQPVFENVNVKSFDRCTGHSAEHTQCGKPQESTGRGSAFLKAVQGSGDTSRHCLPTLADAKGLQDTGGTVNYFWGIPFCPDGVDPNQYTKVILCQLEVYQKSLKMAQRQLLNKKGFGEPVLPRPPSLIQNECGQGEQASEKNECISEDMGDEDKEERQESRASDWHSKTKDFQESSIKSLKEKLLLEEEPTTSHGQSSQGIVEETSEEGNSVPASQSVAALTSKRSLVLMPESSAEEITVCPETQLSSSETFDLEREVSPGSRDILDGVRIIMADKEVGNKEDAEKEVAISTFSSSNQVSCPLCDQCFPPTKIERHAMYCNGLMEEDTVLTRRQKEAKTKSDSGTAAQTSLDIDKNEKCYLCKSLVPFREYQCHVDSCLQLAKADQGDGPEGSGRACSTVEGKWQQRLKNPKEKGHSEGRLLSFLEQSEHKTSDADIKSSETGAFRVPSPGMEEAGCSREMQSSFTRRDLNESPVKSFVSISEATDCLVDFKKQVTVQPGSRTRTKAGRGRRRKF
UniProt Q96K76: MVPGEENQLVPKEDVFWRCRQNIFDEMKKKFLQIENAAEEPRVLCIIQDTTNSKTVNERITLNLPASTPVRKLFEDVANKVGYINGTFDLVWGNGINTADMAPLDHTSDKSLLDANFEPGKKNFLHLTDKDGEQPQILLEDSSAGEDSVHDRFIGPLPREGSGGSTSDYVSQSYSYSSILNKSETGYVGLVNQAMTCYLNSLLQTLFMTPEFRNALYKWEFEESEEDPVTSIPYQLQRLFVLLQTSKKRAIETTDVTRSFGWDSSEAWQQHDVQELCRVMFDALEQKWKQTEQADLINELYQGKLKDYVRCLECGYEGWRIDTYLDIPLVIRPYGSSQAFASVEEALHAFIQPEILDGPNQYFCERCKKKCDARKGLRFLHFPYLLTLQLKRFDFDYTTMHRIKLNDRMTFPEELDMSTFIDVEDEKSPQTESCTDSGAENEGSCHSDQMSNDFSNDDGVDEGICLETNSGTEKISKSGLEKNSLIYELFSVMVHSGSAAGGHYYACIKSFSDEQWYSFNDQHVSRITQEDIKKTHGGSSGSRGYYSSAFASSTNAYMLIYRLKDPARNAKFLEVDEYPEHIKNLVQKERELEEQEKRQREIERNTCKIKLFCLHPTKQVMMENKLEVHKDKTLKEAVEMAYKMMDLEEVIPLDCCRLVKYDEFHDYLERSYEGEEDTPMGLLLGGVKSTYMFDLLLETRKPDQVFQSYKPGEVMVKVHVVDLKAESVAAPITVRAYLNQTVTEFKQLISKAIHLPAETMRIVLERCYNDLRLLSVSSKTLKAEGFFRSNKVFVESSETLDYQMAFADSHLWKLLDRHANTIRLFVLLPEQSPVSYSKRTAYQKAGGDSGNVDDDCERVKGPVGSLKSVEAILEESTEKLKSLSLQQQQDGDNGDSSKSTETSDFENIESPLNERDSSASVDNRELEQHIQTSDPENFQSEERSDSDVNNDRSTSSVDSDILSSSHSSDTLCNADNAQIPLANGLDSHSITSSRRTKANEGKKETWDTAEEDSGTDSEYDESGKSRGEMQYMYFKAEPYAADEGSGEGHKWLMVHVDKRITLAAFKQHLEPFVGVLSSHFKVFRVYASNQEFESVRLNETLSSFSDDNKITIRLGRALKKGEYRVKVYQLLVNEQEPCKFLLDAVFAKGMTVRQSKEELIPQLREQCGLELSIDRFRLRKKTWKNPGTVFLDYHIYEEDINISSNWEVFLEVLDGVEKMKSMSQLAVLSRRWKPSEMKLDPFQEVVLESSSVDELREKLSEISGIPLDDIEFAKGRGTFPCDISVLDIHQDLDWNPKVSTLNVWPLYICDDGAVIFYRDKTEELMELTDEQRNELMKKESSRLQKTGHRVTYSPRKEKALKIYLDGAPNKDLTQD
UniProt Q9P2Y5: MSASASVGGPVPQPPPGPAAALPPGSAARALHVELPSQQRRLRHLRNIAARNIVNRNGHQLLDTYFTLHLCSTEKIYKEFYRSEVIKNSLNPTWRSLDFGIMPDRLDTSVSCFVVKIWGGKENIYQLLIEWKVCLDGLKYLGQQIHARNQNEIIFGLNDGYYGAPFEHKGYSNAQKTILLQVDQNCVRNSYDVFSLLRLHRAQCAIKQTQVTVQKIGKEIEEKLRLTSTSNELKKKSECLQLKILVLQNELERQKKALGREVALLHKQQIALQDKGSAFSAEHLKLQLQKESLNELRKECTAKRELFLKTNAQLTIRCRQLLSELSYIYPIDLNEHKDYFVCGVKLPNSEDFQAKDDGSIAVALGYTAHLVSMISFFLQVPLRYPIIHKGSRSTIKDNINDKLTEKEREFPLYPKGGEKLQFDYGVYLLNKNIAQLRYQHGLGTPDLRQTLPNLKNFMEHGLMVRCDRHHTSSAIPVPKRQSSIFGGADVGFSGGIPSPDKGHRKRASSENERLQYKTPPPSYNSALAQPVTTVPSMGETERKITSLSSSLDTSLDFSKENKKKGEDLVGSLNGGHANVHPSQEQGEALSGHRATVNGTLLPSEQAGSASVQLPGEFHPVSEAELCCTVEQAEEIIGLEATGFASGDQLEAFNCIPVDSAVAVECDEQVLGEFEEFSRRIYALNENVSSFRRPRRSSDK
UniProt O94763, whole entry, looked up: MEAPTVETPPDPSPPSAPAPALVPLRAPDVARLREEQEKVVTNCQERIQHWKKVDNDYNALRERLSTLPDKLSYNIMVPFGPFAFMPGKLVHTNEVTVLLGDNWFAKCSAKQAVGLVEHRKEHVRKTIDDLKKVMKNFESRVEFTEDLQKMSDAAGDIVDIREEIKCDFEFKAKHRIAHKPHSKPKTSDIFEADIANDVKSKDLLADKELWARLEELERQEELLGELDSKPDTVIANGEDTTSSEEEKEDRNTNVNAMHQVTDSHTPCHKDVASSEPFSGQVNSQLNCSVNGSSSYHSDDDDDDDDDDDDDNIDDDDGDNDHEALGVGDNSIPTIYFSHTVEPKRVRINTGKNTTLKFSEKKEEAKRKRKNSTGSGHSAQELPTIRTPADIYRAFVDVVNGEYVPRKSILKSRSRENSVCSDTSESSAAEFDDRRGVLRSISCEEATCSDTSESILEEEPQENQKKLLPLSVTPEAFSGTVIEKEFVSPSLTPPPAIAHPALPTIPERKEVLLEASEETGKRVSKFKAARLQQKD
UniProt O75379: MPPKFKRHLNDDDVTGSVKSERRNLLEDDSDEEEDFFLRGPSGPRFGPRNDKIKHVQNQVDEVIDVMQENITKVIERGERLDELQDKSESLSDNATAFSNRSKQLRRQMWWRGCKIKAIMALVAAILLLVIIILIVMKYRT
UniProt O14949: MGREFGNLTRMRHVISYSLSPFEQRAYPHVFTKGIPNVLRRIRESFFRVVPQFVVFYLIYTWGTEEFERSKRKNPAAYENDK
UniProt Q9Y3C8: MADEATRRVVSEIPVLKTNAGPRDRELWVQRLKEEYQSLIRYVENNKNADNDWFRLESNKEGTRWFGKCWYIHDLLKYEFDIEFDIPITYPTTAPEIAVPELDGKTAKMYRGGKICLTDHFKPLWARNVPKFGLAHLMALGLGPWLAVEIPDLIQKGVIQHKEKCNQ
UniProt Q92575: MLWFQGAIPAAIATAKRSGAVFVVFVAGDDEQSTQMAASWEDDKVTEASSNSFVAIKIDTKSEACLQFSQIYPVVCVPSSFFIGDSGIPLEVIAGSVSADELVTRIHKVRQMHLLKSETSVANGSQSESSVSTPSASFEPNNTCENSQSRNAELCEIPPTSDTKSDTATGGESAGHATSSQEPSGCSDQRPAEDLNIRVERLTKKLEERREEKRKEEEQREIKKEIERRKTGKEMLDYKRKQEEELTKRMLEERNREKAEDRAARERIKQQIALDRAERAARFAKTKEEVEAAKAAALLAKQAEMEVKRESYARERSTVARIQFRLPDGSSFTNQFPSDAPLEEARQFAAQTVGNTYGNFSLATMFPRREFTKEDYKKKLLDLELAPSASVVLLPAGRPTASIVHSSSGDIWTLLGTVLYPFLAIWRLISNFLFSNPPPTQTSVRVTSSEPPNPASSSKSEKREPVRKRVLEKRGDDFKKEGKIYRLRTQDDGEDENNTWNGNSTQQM

What follows are targets tested with C1=CC=C2C(=C1)C3=NNC4=CC=CC(=C43)C2=O (assay: log2 fold change, soluble protein after heating vs DMSO (PISA); higher = thermal stabilisation; K562 cells, 10 uM, 30 min; active = over 0.2 and 3.5 SD of the protein, either way, in both replicates (recomputed)).
Summary of the method: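 Thermal stability values are relative to control samples and come from duplicates. They are expressed as log2 fold changes. For measurement, K562 cells (2×10^6 cells/mL) received 10 μM compound for 30 min, and aliquots were heated for 3 min over 48°C-58°C, pooled, and extracted at 4°C in PBS with 0.5% NP-40. Soluble protein, the supernatant after 21,000xg for 90 min, was quantified by TMTpro 16plex LC-MS/MS with equalised channel sums.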

log2 fold change, inactive:
UBQLN2 (UniProt Q9UHD9) 0.015
UQCC1 (UniProt Q9NVA1) -0.027
USP1 (UniProt O94782) 0.074
UCK1 (UniProt Q9HA47) -0.002
UCHL3 (UniProt P15374) -0.019
VAC14 (UniProt Q08AM6) 0.003
UTP15 (UniProt Q8TED0) 0.082
VAMP8 (UniProt Q9BV40) -0.03
VASP (UniProt P50552) 0.027
URGCP (UniProt Q8TCY9) -0.095
UBL5 (UniProt Q9BZL1) -0.004
UIMC1 (UniProt Q96RL1) -0.016
USP47 (UniProt Q96K76) 0
UNC13D isoform 3 (UniProt Q70J99) -0.039
UNC45A (UniProt Q9H3U1) 0.025
UVRAG (UniProt Q9P2Y5) 0.049
URI1 isoform 4 (UniProt O94763) -0.153
VAMP4 (UniProt O75379) -0.033
UQCRQ (UniProt O14949) 0.025
UBR7 (UniProt Q8N806) -0.038
UPF1 (UniProt Q92900) -0.019
UFC1 (UniProt Q9Y3C8) -0.042
UBE3C (UniProt Q15386) -0.02
UBXN4 (UniProt Q92575) 0.008

Looked up one by one from the entries so far:
log2 fold change, inactive:
UCHL3 (UniProt P15374) -0.019
UBQLN2 (UniProt Q9UHD9) 0.015
